Some entries share one result that the patent states for a list of compounds. For at least one compound, name, drawing or mass did not settle the structure.
Test system: cotton aphid (Aphis gossypii)
Experiment: Test Example 1: foliar spray on cucumber seedling infested with cotton aphid
Type: in vivo
Details: spray 10 mL/seedling, surviving insects counted after 5 days, 25° C.

Row | Structure (SMILES) | controlling value (200 ppm) [%] | controlling value (500 ppm) [%]
1 | CCS(=O)(=O)c1ccc2n[nH]c(=O)n2c1-c1ccc(OCC(F)(F)C(F)(F)F)cn1 [compound 1] | ≥ 90 | ≥ 90
2 | CCS(=O)(=O)c1cc(C(F)(F)F)c2n[nH]c(=O)n2c1-c1ccc(OCC(F)(F)C(F)(F)F)cn1 [compound 2] | ≥ 90 | ≥ 90
3 | CCS(=O)(=O)c1cc(C(F)(F)F)c2nncn2c1-c1ccc(OCC(F)(F)C(F)(F)F)cn1 [compound 3] | ≥ 90 | ≥ 90
4 | CCS(=O)(=O)c1ccc2nncn2c1-c1ccc(OCC(F)(F)C(F)(F)F)cn1 [compound 4] | ≥ 90 | ≥ 90
5 | CCS(=O)(=O)C1=C(c2ccc(OCC(F)(F)C(F)(F)F)cn2)N2CCN=C2C(C(F)(F)F)=C1 [compound 5] | ≥ 90 | ≥ 90
6 | CCS(=O)(=O)c1cc(C(F)(F)F)c2nccn2c1-c1ccc(OCC(F)(F)C(F)(F)F)cn1 [compound 6] | ≥ 90 | ≥ 90
